Assay results from publication PMC4966956, “Analysis of the Bile Salt Export Pump (ABCB11) Interactome Employing Complementary Approaches” (PLoS ONE, 2016).
These are yes or no findings as the source states them, for the method shown. For some of these results: Binding seen in cells or lysates may run through a third protein. Some results given as binding are weak or reduced against the parent protein; the word gives no strength.

The chains behind the UniProt entries cited, without tags or fusion partners. Where a name states a change or a piece, a line headed by the entry shows the natural chain unless it says otherwise. Residues count along the entry.
UniProt P35241, residues 1-318: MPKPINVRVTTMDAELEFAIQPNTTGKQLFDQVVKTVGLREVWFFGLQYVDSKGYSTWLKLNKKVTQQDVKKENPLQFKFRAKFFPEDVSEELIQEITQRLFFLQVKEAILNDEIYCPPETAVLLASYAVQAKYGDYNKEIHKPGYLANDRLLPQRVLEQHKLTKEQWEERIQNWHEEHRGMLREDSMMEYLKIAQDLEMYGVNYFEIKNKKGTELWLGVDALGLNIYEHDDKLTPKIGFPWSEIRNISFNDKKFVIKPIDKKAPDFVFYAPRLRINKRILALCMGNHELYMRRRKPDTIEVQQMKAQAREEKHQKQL
UniProt O95342: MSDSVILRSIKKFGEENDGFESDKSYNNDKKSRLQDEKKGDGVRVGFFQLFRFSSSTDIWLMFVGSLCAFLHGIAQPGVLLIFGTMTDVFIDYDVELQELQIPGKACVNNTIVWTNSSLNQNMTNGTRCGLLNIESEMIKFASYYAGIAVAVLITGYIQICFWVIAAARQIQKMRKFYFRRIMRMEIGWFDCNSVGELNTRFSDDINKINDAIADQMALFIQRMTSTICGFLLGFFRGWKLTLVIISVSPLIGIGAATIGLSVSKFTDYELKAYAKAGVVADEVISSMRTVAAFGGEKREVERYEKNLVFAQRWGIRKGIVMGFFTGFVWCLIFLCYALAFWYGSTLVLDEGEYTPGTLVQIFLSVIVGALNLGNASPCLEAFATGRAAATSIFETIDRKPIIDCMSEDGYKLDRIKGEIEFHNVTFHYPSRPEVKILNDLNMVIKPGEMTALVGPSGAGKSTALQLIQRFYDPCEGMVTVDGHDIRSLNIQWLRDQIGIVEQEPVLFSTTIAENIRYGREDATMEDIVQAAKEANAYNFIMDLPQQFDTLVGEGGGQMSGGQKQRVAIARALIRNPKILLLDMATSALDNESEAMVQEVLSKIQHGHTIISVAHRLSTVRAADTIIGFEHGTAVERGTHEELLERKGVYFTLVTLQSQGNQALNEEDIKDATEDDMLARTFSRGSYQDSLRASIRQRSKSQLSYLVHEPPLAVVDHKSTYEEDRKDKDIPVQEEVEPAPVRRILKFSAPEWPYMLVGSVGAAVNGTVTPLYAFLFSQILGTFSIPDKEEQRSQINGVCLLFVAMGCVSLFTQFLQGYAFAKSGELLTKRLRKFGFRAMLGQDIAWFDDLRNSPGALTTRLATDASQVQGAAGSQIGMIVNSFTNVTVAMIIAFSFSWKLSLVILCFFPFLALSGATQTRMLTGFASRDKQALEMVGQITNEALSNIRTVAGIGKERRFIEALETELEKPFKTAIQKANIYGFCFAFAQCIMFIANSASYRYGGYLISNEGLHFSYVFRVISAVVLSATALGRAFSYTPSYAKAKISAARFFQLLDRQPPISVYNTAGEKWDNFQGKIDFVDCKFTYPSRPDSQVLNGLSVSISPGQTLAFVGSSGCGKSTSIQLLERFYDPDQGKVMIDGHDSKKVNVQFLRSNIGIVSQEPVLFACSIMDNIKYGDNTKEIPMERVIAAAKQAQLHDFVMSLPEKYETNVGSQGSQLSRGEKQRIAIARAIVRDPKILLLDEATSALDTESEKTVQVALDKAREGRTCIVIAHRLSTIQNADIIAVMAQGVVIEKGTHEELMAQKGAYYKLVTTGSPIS

B1: bile acyl-CoA synthetase, BACS_(640-690), MYTH prey (domain or fragment, UniProt Q9Y2P5-1 640-690)
chain: TFKLMKTRLVREGFNVGIVVDPLFVLDNRAQSFRPLTAEMYQAVCEGTWRL
B2: bile acyl-CoA synthetase, endogenous in human liver (enzyme, UniProt Q9Y2P5-1 1-690)
chain: MGVRQQLALLLLLLLLLWGLGQPVWPVAVALTLRWLLGDPTCCVLLGLAMLARPWLGPWVPHGLSLAAAALALTLLPARLPPGLRWLPADVIFLAKILHLGLKIRGCLSRQPPDTFVDAFERRARAQPGRALLVWTGPGAGSVTFGELDARACQAAWALKAELGDPASLCAGEPTALLVLASQAVPALCMWLGLAKLGCPTAWINPHGRGMPLAHSVLSSGARVLVVDPDLRESLEEILPKLQAENIRCFYLSHTSPTPGVGALGAALDAAPSHPVPADLRAGITWRSPALFIYTSGTTGLPKPAILTHERVLQMSKMLSLSGATADDVVYTVLPLYHVMGLVVGILGCLDLGATCVLAPKFSTSCFWDDCRQHGVTVILYVGELLRYLCNIPQQPEDRTHTVRLAMGNGLRADVWETFQQRFGPIRIWEVYGSTEGNMGLVNYVGRCGALGKMSCLLRMLSPFELVQFDMEAAEPVRDNQGFCIPVGLGEPGLLLTKVVSQQPFVGYRGPRELSERKLVRNVRQSGDVYYNTGDVLAMDREGFLYFRDRLGDTFRWKGENVSTHEVEGVLSQVDFLQQVNVYGVCVPGCEGKVGMAAVQLAPGQTFDGEKLYQHVRAWLPAYATPHFIRIQDAMEVTSTFKLMKTRLVREGFNVGIVVDPLFVLDNRAQSFRPLTAEMYQAVCEGTWRL

Assays:
[1] = biological target: radixin_(1-318), Strep-tagged, purified (human) (UniProt P35241); assay: pull-down; Strep-tagged partner immobilised on Strep-Tactin resin, detergent-solubilised purified BSEP added for 30 min at 4°C; 50 mM sodium phosphate pH 7, 150 mM NaCl, 20% glycerol, 0.022% DDM; immunoblot against BSEP and Strep-tag II; both purified
[2] = biological target: bile salt export pump (BSEP, ABCB11), MYTH bait (human) (UniProt O95342); assay: two-hybrid; membrane yeast two-hybrid (MYTH, split-ubiquitin) in S. cerevisiae NMY51; bait BSEP-Cub-LexA-VP16 (pBT3-C), preys NubG-X human adult liver cDNA library; growth on SD-LWH, then SD-LWHAd with X-Gal; retransformation of each prey and bait dependency test against large T antigen-Ost4p; control with NubG-nonsense peptide
[3] = biological target: bile salt export pump (BSEP, ABCB11), endogenous in human liver (human (endogenous in human liver)) (UniProt O95342); assay: co-IP; BSEP immunoprecipitated with monoclonal antibody F-6 from human liver membranes solubilised in 1% Triton X-100; immunoblot; control naive mouse IgG2a

Molecule	binding [2]	other results
bile salt export pump (BSEP), purified, with C-terminal affinity tags (from UniProt O95342 1-1321)	–	binding [1]: binds
radixin_(1-318), MYTH prey (from UniProt P35241-5 1-318) (domain or fragment)	binds	–
B1	binds	–
B2	–	binding [3]: binds
